Assay results published in PMC4002113.
Results are given in words; binding and its absence hold for the method and conditions named.

Molecular target: T1, FAF1-ΔUBX(1–560) (murine) (UniProt P54731)
T1 sequence (chain, NanoTemper495-N-hydroxysuccinimide blue/red dye label (in the MST)): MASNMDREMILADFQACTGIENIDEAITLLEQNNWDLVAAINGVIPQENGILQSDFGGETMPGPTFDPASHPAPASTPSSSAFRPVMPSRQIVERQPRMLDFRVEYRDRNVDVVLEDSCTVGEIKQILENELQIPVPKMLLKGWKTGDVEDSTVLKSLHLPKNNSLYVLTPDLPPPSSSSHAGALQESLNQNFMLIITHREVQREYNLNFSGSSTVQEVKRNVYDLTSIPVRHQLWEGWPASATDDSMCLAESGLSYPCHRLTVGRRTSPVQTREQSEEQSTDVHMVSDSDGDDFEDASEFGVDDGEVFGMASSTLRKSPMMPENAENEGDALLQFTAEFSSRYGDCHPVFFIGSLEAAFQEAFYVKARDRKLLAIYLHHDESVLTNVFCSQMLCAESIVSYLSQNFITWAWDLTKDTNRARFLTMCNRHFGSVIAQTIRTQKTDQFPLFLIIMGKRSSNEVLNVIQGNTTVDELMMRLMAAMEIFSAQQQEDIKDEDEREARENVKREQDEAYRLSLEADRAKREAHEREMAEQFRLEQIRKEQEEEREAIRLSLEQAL
Assay: condition: full-length p97 between 135 and 0.0041 μM; MST; 0.06 μM dye-labelled FAF1 kept constant, full-length p97 titrated between 135 and 0.0041 μM; 20 mM HEPES, 150 mM KCl, pH 7.4; 30 °C; average of two experiments, Hill equation fit; both purified

## C-terminally His-tagged full-length p97 (residues 1–806) (from UniProt Q01853 1-806)
  binding: no binding
